Data as given in PubChem BioAssay AID743121 (NCATS, 2013)
Test: 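Knock-downs that sensitise breast cancer cells to camptothecin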 (primary screen). Cells: MDA-MB-231 cells, a human breast cancer line. Knock-down reagent: single siRNA against human genes, 20 nM siRNA (0.8 pmol per well). Timing: 120 h (drug added 48 h after transfection, read 72 h later). Conditions: camptothecin 20 nM (about EC30) for 72 h; vehicle 0.1% DMSO in parallel plates. Read-out: 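CellTiter-Glo ATP signal, scaled to control siRNA as percent viability; sensitisation given as log2 of untreated divided by camptothecin-treated viability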. Scale: log2 vehicle/camptothecin viability: higher = stronger sensitisation to camptothecin; viability with camptothecin and viability without drug: higher = more viable cells. Call rule: 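Each gene scored by redundant siRNA activity (RSA) over its individual siRNA ratios; a gene is called active at p < 0.001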.
In all, the deposit lists about 26,000 reagents; this is an unselected part. In the full data, 167 (0.63%) got an active call. 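Calls are per gene from RSA p-values that are not deposited; an individual active-marked siRNA can sensitise only weakly.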 No sequences are given here.

no.	gene	PubChem SID	log2 vehicle/camptothecin viability	viability with camptothecin (% of control)	viability without drug (% of control)	activity call
1	CYP2B7P (GeneID 1556)	SID164360720	-0.631	107	68.8	inactive
2	CYP2B7P (GeneID 1556)	SID164360722	-0.119	87.5	80.6	inactive
3	CYP2B7P (GeneID 1556)	SID164360723	-0.296	84.1	68.5	inactive
4	CYP2B7P (GeneID 1556)	SID164360724	-0.0519	105	101	inactive
5	MCM3 (GeneID 4172)	SID164375055	0.695	41	66.4	inactive
6	MCM3 (GeneID 4172)	SID164375057	-0.4	70.4	53.4	inactive
7	MCM3 (GeneID 4172)	SID164375058	-0.0216	85.7	84.4	inactive
8	AKR1C2 (GeneID 1646)	SID164361212	0.172	53.3	60	inactive
9	AKR1C2 (GeneID 1646)	SID164361215	-0.081	107	101	inactive
10	AKR1C2 (GeneID 1646)	SID164361218	0.162	96.9	108	inactive
11	AKR1C2 (GeneID 1646)	SID164361220	-0.34	76.6	60.5	inactive
12	AKR1C2 (GeneID 1646)	SID164361228	-0.0883	106	99.5	inactive
13	AKR1C2 (GeneID 1646)	SID164361231	0.092	85.2	90.8	inactive
14	AKR1C2 (GeneID 1646)	SID164361232	-0.119	117	108	inactive
15	GMPR (GeneID 2766)	SID164366853	-0.0429	104	101	inactive
16	GMPR (GeneID 2766)	SID164366854	-0.368	38.5	29.8	inactive
17	GMPR (GeneID 2766)	SID164366855	-0.161	110	98.3	inactive
18	GMPR (GeneID 2766)	SID164366857	0.0667	100	105	inactive
19	ALPI (GeneID 248)	SID164353131	-0.608	84.9	55.7	inactive
20	ALPI (GeneID 248)	SID164353132	0.428	33.5	45	inactive
21	ALPI (GeneID 248)	SID164353133	-0.09	78.3	73.5	inactive
22	ALPI (GeneID 248)	SID164353135	1.21	11.1	25.7	inactive
23	PANK3 (GeneID 79646)	SID164532319	-0.576	37.6	25.2	inactive
24	PANK3 (GeneID 79646)	SID164532320	-0.284	120	98.4	inactive
25	PANK3 (GeneID 79646)	SID164532321	-0.4	97.4	73.8	inactive
26	PANK3 (GeneID 79646)	SID164532322	-0.0114	73.5	72.9	inactive
27	PTGDR2 (GeneID 11251)	SID164416552	0.0354	79.5	81.5	inactive
28	PTGDR2 (GeneID 11251)	SID164416554	-0.188	83.8	73.6	inactive
29	PTGDR2 (GeneID 11251)	SID164416555	-0.319	21.9	17.5	inactive
30	PTGDR2 (GeneID 11251)	SID164416556	0.156	76.8	85.6	inactive
31	CARD18 (GeneID 59082)	SID164498143	0.127	114	124	inactive
32	CARD18 (GeneID 59082)	SID164498145	-0.207	68.1	59	inactive
33	CARD18 (GeneID 59082)	SID164498147	0.0762	102	107	inactive
34	PTGER4 (GeneID 5734)	SID164383679	-0.145	108	98	inactive
35	PTGER4 (GeneID 5734)	SID164383682	1.22	21	48.9	inactive
36	PTGER4 (GeneID 5734)	SID164383683	-0.0806	85.3	80.6	inactive
37	PTGER4 (GeneID 5734)	SID164383685	0.306	82	101	inactive
38	HUNK (GeneID 30811)	SID164469208	-0.569	34.1	23	inactive
39	HUNK (GeneID 30811)	SID164469209	-0.351	53	41.5	inactive
40	HUNK (GeneID 30811)	SID164469211	0.321	63.3	79.1	inactive
41	HUNK (GeneID 30811)	SID164469212	-0.117	109	101	inactive
42	CTLA4 (GeneID 1493)	SID164360393	0.00337	94.7	94.9	inactive
43	CTLA4 (GeneID 1493)	SID164360394	0.00183	104	104	inactive
44	CTLA4 (GeneID 1493)	SID164360395	-0.195	69	60.3	inactive
45	CTLA4 (GeneID 1493)	SID164360396	-0.318	66.6	53.5	inactive
46	HTR3E (GeneID 285242)	SID164616879	-0.416	58.3	43.7	inactive
47	HTR3E (GeneID 285242)	SID164616881	0.329	69.7	87.5	inactive
48	HTR3E (GeneID 285242)	SID164616884	0.0668	97.5	102	inactive
49	HTR3E (GeneID 285242)	SID164616885	-0.547	75.5	51.7	inactive
